The assay can be described thus: qHTS Assay for Lipid Storage Modulators in Drosophila S3 Cells.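 As to cell number change: cells counted by Cell Tracker Red CMTPX staining in the red channel.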 The conditions noted are these: BODIPY lipid droplet fluorescence, 18-24 h; for cell number change: measured here: cell count max response, cells fed with added oleic acid. The essentials:
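Laser-scanning cytometry quantifies lipid droplet accumulation (500–530 nm total intensity; droplet/cell object ratio) in oleic acid-fed (400 uM added) Drosophila S3 cells treated with a concentration series. 20 uM Triacsin C defined 100% inhibition.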

Where [1] appears, read: measured here: cell number channel AC50, cells fed with added oleic acid.
The mark [2] stands for this setting: measured here: lipid fluorescence (Fed channel) AC50, cells fed with added oleic acid.

The other results are listed elsewhere or left out. These are further read-outs of the screen, such as a control signal, another cell line or another target. No call is given for them. The list favours compounds with an active or inconclusive main result. Words in brackets tell the shape of the fitted curve; partial curves, single points and poor fits give uncertain potencies.

With `O=C(NCCCN=C1NS(=O)(=O)c2ccccc21)c1ccncc1`, the cell number change is -34.2%. Further, the AC50 under setting [1] is 29.1 µM [falling, partial curve, poor fit]. The AC50 under setting [2] is 1.16 µM [falling, full curve].
Take `CC(C)c1ccc(S(=O)(=O)N2CCN(CC(=O)Nc3ccc(Cl)cc3F)CC2)cc1`: the cell number change is -6.1%. The AC50 under setting [2] is 6.51 µM [falling, single point].
Turning to `FC(F)(F)c1cccc(/C=N/NC(=S)NC2CCCCC2)c1`, the cell number change was -26%. For the same molecule, the concentration at half-maximal activity (AC50) under setting [1] is 6.51 µM [rising, single point].
On to `Fc1ccccc1OCCSc1nnnn1-c1ccccc1`, for which the cell number change turned out to be 315%. Also, under setting [1], the concentration at half-maximal activity (AC50) is 20.6 µM [rising, partial curve]. The AC50 under setting [2] is 14.6 µM [rising, partial curve].
With `CCN(CC)S(=O)(=O)c1cccc(C(=O)OCC(=O)NCc2ccccc2OC)c1`, the cell number change turned out to be 3.1%.
For `Cc1cccc(N2CCN(C(=O)Cn3c(=O)[nH]c4ccsc4c3=O)CC2C)c1` (centres undefined), the cell number change amounted to 42.7%. Also, the AC50 under setting [1] was 29.1 µM [rising, single point]. Under setting [2], the AC50 is 0.116 µM [falling, full curve, poor fit].
`CCCCNC(=S)NNC(=O)c1cc(-c2cccnc2)nc2ccccc12`: the cell number change was 32.1%.
In the case of `CCOC(=O)c1cccc(NC(=O)CCOc2ccccc2)c1`, the cell number change is -6.44%. Further, under setting [2], the AC50 was 23.1 µM [falling, single point].
`CN1/C(=C\C=O)C(C)(C)c2ccccc21`: the cell number change turned out to be 24.9%. Moreover, the half-maximal activity concentration (AC50) under setting [1] was 0.164 µM [rising, full curve, poor fit]. Further, the half-maximal activity concentration (AC50) under setting [2] was 0.13 µM [rising, full curve, poor fit].
`COc1ccc(NC(=O)Nc2cccc3ccccc23)cc1S(N)(=O)=O`: the cell number change stood at 21.4%. The AC50 under setting [1] is 0.326 µM [rising, full curve, poor fit].
For the molecule `COC(=O)C1CCN(C(=O)/C=C/c2ccc3c(c2)OCO3)CC1`, the cell number change amounted to 16.8%.
For `Cc1ccc(S(=O)(=O)N2CCC(C)CC2)cc1C(=O)NCCN1CCOCC1`, the cell number change is -4.97%. The concentration at half-maximal activity (AC50) under setting [2] was 0.116 µM [falling, full curve, poor fit].
On to `Cc1ccc(CNC(=O)Cc2ccc(-c3ccccc3)cc2)cc1`, for which the cell number change was -15.4%. In addition, the half-maximal activity concentration (AC50) under setting [2] was 20.6 µM [falling, single point].
With `COc1ccc(NC(=O)c2ccccc2SC)c(OC)c1`, the cell number change was -39.2%.
As to `N#CC(C(=O)C12CC3CC(CC(C3)C1)C2)c1nc2ccccc2[nH]1` (centres undefined), the cell number change is 1.08%. Moreover, the concentration at half-maximal activity (AC50) under setting [2] was 0.00517 µM [falling, full curve, poor fit].
On to `Cc1c(-c2ccc(Br)cc2)[n+](=O)c2c(n1[O-])CCCC2`, for which the cell number change is -14.8%. Further, under setting [2], the AC50 is 0.00461 µM [rising, full curve, poor fit].
With `CCn1nnnc1SCC(=O)Nc1sc(C)c(C)c1C#N`, the cell number change was determined as 13.2%. In addition, the half-maximal activity concentration (AC50) under setting [1] is 0.517 µM [rising, partial curve]. Also, the concentration at half-maximal activity (AC50) under setting [2] is 2.31 µM [rising, partial curve].
As to `Nc1cc(Cl)ccc1Oc1ccc2ccccc2c1`, the cell number change is -33.8%. Besides, the AC50 under setting [1] is 6.51 µM [rising, single point].
For `Cc1cc(C(=O)NCC2CCCO2)n(-c2ccccc2)n1` (centres undefined), the cell number change was -24.4%. Besides, the AC50 under setting [2] is 6.51 µM [falling, single point].
Consider `Cc1ccc(Sc2ncccc2C(=O)NCc2cc([N+](=O)[O-])ccc2O)c(C)c1`, for which the cell number change is 61.1%. Further, the AC50 under setting [1] was 32.6 µM [rising, single point]. Also, the AC50 under setting [2] is 29.1 µM [rising, single point].
Consider `CCN1C(=O)[C@H]2[C@@H](c3ccc(C)cc3)N3C(=O)N(c4cccc(Br)c4)C(=O)[C@@]3(Cc3ccccc3)[C@H]2C1=O`, for which the cell number change was found to be 24.8%. Moreover, under setting [2], the concentration at half-maximal activity (AC50) was 2.06 µM [rising, single point].
For the molecule `CC(C)CCOc1cccc(OCC(=O)Nc2ccncc2)c1`, the cell number change is -14.1%. Also, the concentration at half-maximal activity (AC50) under setting [2] was 2.06 µM [falling, partial curve].
Turning to `CCC(=O)NC(C)c1nc2ccccc2n1C` (centres undefined), the cell number change was -205%. In addition, under setting [1], the half-maximal activity concentration (AC50) was 29.1 µM [falling, partial curve]. In addition, the concentration at half-maximal activity (AC50) under setting [2] was 25.9 µM [falling, partial curve].
With `O=C(C1=C(O)C(=O)N(CC2CCCO2)C1c1ccccc1F)c1ccco1` (centres undefined), the cell number change is -17.1%. The AC50 under setting [1] was 0.0366 µM [falling, full curve, poor fit].
As to `O=C(COC(=O)/C=C/C(=O)N1CCN(c2ccccc2)CC1)NCc1ccc(F)cc1`, the cell number change is -3.53%. Further, under setting [1], the AC50 is 6.51 µM [falling, single point].
Consider `O=C(Nc1ccc(NC(=O)c2ccccc2F)cc1)c1cccs1`, for which the cell number change is -17.4%. Further, the AC50 under setting [1] was 6.51 µM [falling, partial curve]. Further, the AC50 under setting [2] is 0.92 µM [falling, full curve, poor fit].
As for `Nc1ccc(-c2ccc(N)c([N+](=O)[O-])c2)cc1[N+](=O)[O-]`, under setting [2], the AC50 was 6.51 µM [rising, single point].
For the molecule `COc1cc(C)nc(NC(=O)COc2ccc(Cl)cc2C)n1`, the AC50 runs as follows: under setting [1], 0.146 µM [rising, full curve, poor fit]; under setting [2], 0.231 µM [rising, full curve, poor fit].
On to `Cc1ccc(OCCC(=O)OCC(=O)Nc2ccc(C)cc2Cl)cc1`, for which the cell number change was -36%. Also, under setting [1], the concentration at half-maximal activity (AC50) was 23.1 µM [falling, partial curve, poor fit]. In addition, the concentration at half-maximal activity (AC50) under setting [2] was 4.11 µM [rising, single point].
Regarding `CCN(CC(=O)Nc1ccc(NC(C)=O)cc1)C(=O)c1ccccc1SCC(=O)N1CCCC1`, the cell number change is -21.9%. In addition, the half-maximal activity concentration (AC50) under setting [2] is 11.6 µM [falling, partial curve].
Regarding `O=C(Cn1ncc2c([nH]c3ccccc32)c1=O)NCCc1ccccc1`, the cell number change was determined as 41.2%. Moreover, the AC50 under setting [1] is 25.9 µM [rising, single point].
`CCCCn1c(=O)c(CCC(=O)OCC(=O)NC(C)c2ccccc2)nc2ccccc21` (centres undefined): the cell number change is 122%.
`COC(=O)c1cc(NC(=O)Cc2coc3cc(OC)ccc23)cc(C(=O)OC)c1`: the cell number change was -29.1%. The AC50 under setting [2] is 32.6 µM [falling, single point].
For `CN(C1CCCCC1)S(=O)(=O)c1ccc2c(c1)c(=O)c(C(=O)N1CCc3ccccc3C1)cn2C`, the AC50 under setting [1] was 2.31 µM [rising, single point].
As to `CCOC(=O)Cc1csc(NC(=S)NC(=O)c2ccccc2Br)n1`, the cell number change was -21.1%.
Consider `Cc1cc(C)nc(SCc2cn3ccccc3n2)n1`, for which the cell number change was 30.6%. The half-maximal activity concentration (AC50) under setting [1] is 29.1 µM [rising, single point].
Turning to `Cc1noc(C)c1COC(=O)CNC(=O)c1ccc(Cl)cc1`, the cell number change worked out at 47.2%.

A word on the AC50: it is the concentration at which the activity in the assay is half-maximal. A low value points to activity at low concentration.

The values are drawn from PubChem BioAssay AID2685 (National Center for Advancing Translational Sciences (NCATS), 2010).
